Measured values from PubChem BioAssay AID1347423 (Functional Genomics Laboratory (NCATS/FGL), 2020).
Screen size: about 52,000 sequences; about 210 (0.4%) were called active.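 Rule for the calls: active = gene whose silencing raises cell survival under the drug, median off-target-corrected z-score across its silencing RNAs 2 or more; inactive = the rest.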 The list shows a part of the results.

Assay: Resistance to Poly (ADP-Ribose) Polymerase inhibitor: Gene Identification via Genome-wide siRNA Screen
Conditions: mouse BRCA2 R2336H ES cells, olaparib, CellTiter-Glo viability; active compounds read high
Method in brief: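 Genome-wide siRNA screen (3 siRNAs/gene, 20 nM) in mouse ES cells carrying hypomorphic BRCA2 R2336H; olaparib 500 nM added 48 h post-transfection, CellTiter-Glo viability 72 h later. Normalized to plate-median negative control; MAD z-scores, gene median, seed-adjusted.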

Sequence | z-score
GGCCAUACCUCCCUUUGAATT against Rpo1-2 | inactive: -3.18
GCACAAUGUACAUUAAAGUTT against 0610011L14Rik | inactive: 0.921
CGAUCAGUGGUAUAAACUGTT against 4932425I24Rik | inactive: -0.357
CCAAGCUUACACUAGUGUUTT against Cdk6 | inactive: 0.346
GGUGUGAGGAUCCUAGAGUTT against Rabl5 | inactive: 0.91
GGUAGAGCUCACAAGAUCATT against Gmpr2 | inactive: 0.695
GGAUUCAGCUCUCAUCAGATT against A930012O16Rik | inactive: -3.21
GGUCCCUGGACCAAAGAAGTT against Myb | inactive: -0.639
GGUACGAUGAACUCACAGATT against 1110015K06Rik | inactive: -1.59
GCCUGAGUUAUGUUUAAAGTT against 2610528A17Rik | inactive: 1.64
GGUCACUCCCACAUUUCACTT against Spred1 | inactive: 0.0502
GGUGAAUGUAGUGUUAAAATT against 0910001A06Rik | inactive: 0.762
GGCCUAGAAAGGAAUGAUATT against 1110001M19Rik | inactive: 1.42
GUGACAGUGGCAUCAGCAUTT against 1110003E01Rik | inactive: -0.351
GGUAAAAGAGUCGUGUUUCTT against AI415330 | inactive: -0.388
GCUUAUGUUUCUGCCACUCTT against Olfr1136 | inactive: 0.723
GGGAGGAAUAGCACAGUCATT against Olfr1440 | inactive: -0.547
GGUUCUAGGAAAAUUAGGUTT against Olfr575 | inactive: 0.387
GGAAAUGUCAUGACCUUGATT against Tnfaip6 | inactive: -1.35
GCUGUCCUUUUGAAAGAUATT against 6530413N01Rik | inactive: 0.563
GGUCACUGUCCACAUUUAUTT against Pitrm1 | inactive: -2.1
GGUGGAUGUCACCAGCAAGTT against Sh3gl1 | inactive: 0.112
GGAGUAUUUCCAAACCUAUTT against Sdro | inactive: 0.426
GGAUGACGAAGCCUAUGAUTT against Btbd14a | inactive: -0.576
GGAAGCAAUUUUUUACUCATT against Itm2a | inactive: -0.284
UUCAUGUAGGUUUAUUAUUTT against Olfr194 | inactive: 0.667

Sequence | z-score
GGAAGAGAUCUUAAACUUATT against 4931412G03Rik | inactive: 0.627
GGCAAGAUAAGCUAAAUCCTT against Gpr63 | inactive: 1.35
CCGGAUGCUGGGCUUAGAATT against Nmb | inactive: -1.17
CCUGUAGAUACCUCCCUACTT against Flt1 | inactive: -1.69
GGCAAUGGAAGGAAUCUUCTT against Sdf2l1 | inactive: 0.384
GGAGAUGUACCACAAUGCCTT against Isp2 | inactive: 1.34
CCAAAUUUCAUAGUUUGGGTT against DXImx47e | inactive: -0.522
GGAGACCGUAGUGUUCAUCTT against 4933400F01Rik | inactive: 2.01
CGACUACCUGCUACAUGGCTT against Adipor1 | inactive: 0.571
GCAAGAAAAUUGCACGUUGTT against 1110007C24Rik | inactive: 0.834
GGAGCUCUGGGACAAAUUCTT against Tbx20 | inactive: -0.79
CCUGAACCAUGUUGAAUAUTT against 2610306H15Rik | inactive: -1.07
GGUGCGCUGAGAAAACUGATT against Olfr1402 | inactive: 0.154
CCGAACUUUUUCAACAAAGTT against Eif4g2 | inactive: -1.38
GGACCAGCUUUUCAACAUUTT against F8 | inactive: -0.765
GGUAUGUACUACAAACAAUTT against Pigl | inactive: 1.02
GGGACUAGACAUUUCUGUGTT against 1810046J19Rik | inactive: 0.996
CCAUCUCAUCCCGAGUUAUTT against BC024502 | inactive: 1.75
GCUAGGAAGCAGUUAAUGATT against C330046L10Rik | inactive: 0.0162
GCCCUCCAACCUCGAUAACTT against D430041B17 | inactive: 1.53
GGUCCUGUCUUUACAAUGUTT against C230094A16Rik | inactive: -1.13
GGUUAUCAUCUUGUGAAAATT against Srpk1 | inactive: 0.617
GGACAUCUUCAUUUACAGATT against Golga4 | inactive: -0.278
CCCUAGAAUUAUAUCCUGUTT against Col4a1 | inactive: -0.964
GGUGGUAACUACUGACAGCTT against Aebp1 | inactive: -0.601
GGUGUGACAUUGACCAUAGTT against Sil | inactive: 0.973

Sequence | z-score
GGAUAUCAAAGACAAAGCATT against 3100002B05Rik | inactive: 0.612
GGUACAACCUCGAAACUGGTT against Brp44l | inactive: 0.44
GGAAUACUGAAUUUAAGGATT against Olfr1416 | inactive: 0.454
GGCAGUAAGGCUCCAAUCUTT against Tcp10a | inactive: -1.46
GGGAUCAGUGGAGUACUACTT against Ear6 | inactive: 0.0069
GGAGAAAGCCAAGAAGAAUTT against 1700003M02Rik | inactive: -0.399
GGCUUUCAGGCUUUUUGCATT against 9230117E20Rik | inactive: 0.224
GGAUCAGAUUAUUGAGAUGTT against Smfn | inactive: -0.181
GGCCCAAGCUCAACACAAUTT against 2610208M17Rik | inactive: 1
GCCUGACUAUGCUAAAGCUTT against Cyp4b1 | inactive: -0.982
GCCUGAUUCAGAGUAUAAATT against Col14a1 | inactive: -0.179
GGUGGAUUUUUUCUAAUACTT against Star | inactive: -0.779
GGCCUAUUUAACUAUAGUGTT against Anxa13 | inactive: 1.09
GGAGUGUGCCCUGAAAGAUTT against 5430413I02Rik | inactive: -0.00734
GGUCAGCAAUGGAAGUAAUTT against Onecut1 | inactive: 1.17
GGGUGUCACAAAAUAAAAUTT against AI256711 | inactive: -1.52
CCGACUCUAACUGUGUCAGTT against BC025458 | inactive: -0.0633
GGGUAUCUGAUUUAUAAGCTT against Mageh1 | inactive: 0.315
GGUAGAGGAUCUCUCUAAATT against Fbxo44 | inactive: 0.327
CCCAAAAAGUUUUGCUAACTT against Ing1l | inactive: 0.491
GCUGCUGAUCAGUUCGAUCTT against B230219D22Rik | inactive: 0.561
GAAUCUCCAGAACCUAUUUTT against Pln | inactive: -0.881
CCUAAGAUUUUGGAACAAATT against 2610019I03Rik | inactive: -0.0808
CCCUAGUUACCAAUUCCACTT against Olfr293 | inactive: 0.9
GCUAAAUCUCAAUGACCACTT against Kcnn3 | inactive: 1.51
GGGAUCAAUGUGGACAGUUTT against Icosl | inactive: -1.96

26 entries from above, reformatted.
Sequence	z-score
CCCUAGAAUUAUAUCCUGUTT against Col4a1	inactive: -0.964
GGUGGUAACUACUGACAGCTT against Aebp1	inactive: -0.601
GGUGUGACAUUGACCAUAGTT against Sil	inactive: 0.973
GGAUAUCAAAGACAAAGCATT against 3100002B05Rik	inactive: 0.612
GGUACAACCUCGAAACUGGTT against Brp44l	inactive: 0.44
GGAAUACUGAAUUUAAGGATT against Olfr1416	inactive: 0.454
GGCAGUAAGGCUCCAAUCUTT against Tcp10a	inactive: -1.46
GGGAUCAGUGGAGUACUACTT against Ear6	inactive: 0.0069
GGAGAAAGCCAAGAAGAAUTT against 1700003M02Rik	inactive: -0.399
GGCUUUCAGGCUUUUUGCATT against 9230117E20Rik	inactive: 0.224
GGAUCAGAUUAUUGAGAUGTT against Smfn	inactive: -0.181
GGCCCAAGCUCAACACAAUTT against 2610208M17Rik	inactive: 1
GCCUGACUAUGCUAAAGCUTT against Cyp4b1	inactive: -0.982
GGUGGAUUUUUUCUAAUACTT against Star	inactive: -0.779
GGCCUAUUUAACUAUAGUGTT against Anxa13	inactive: 1.09
GGAGUGUGCCCUGAAAGAUTT against 5430413I02Rik	inactive: -0.00734
GGUCAGCAAUGGAAGUAAUTT against Onecut1	inactive: 1.17
GGGUGUCACAAAAUAAAAUTT against AI256711	inactive: -1.52
CCGACUCUAACUGUGUCAGTT against BC025458	inactive: -0.0633
GGUAGAGGAUCUCUCUAAATT against Fbxo44	inactive: 0.327
GCUGCUGAUCAGUUCGAUCTT against B230219D22Rik	inactive: 0.561
GAAUCUCCAGAACCUAUUUTT against Pln	inactive: -0.881
CCUAAGAUUUUGGAACAAATT against 2610019I03Rik	inactive: -0.0808
CCCUAGUUACCAAUUCCACTT against Olfr293	inactive: 0.9
GCUAAAUCUCAAUGACCACTT against Kcnn3	inactive: 1.51
GGGAUCAAUGUGGACAGUUTT against Icosl	inactive: -1.96

(next part)

Sequence | z-score
GGAAUCCACGACAUGCUAGTT against Pacrg | inactive: 0.439
CCUGUACGUAUUUACAACUTT against 2410004B18Rik | inactive: 1.16
GCCUAUACACUUGGUAUUGTT against Tebp | inactive: 0.671
GGCACAGUGUGGAAAAGUUTT against Cst7 | inactive: -2.35
GCAGGGUUUUUCCAAUAUATT against Asah2 | inactive: -0.575
GGUGCAGUUUAAGAGAGAATT against C630016B22Rik | inactive: 0.153
GACUGAGCUUCUGUGAUGGTT against Olfr921 | inactive: -0.9
GCAUCAAGCCUGGAGAUUCTT against Upf3b | inactive: -1.45
GGAAAUGGACCUUCAAAUCTT against Ppm1h | inactive: 0.328
GGAAGUGAUGUACUUCCAATT against 1810019P04Rik | inactive: 0.578
GGACAAGAUAGGAGGAGACTT against Bat5 | inactive: -1.19
GCUGCACUAAAAAUCAAUUTT against Sall1 | inactive: 0.184
GGAUGGCUCUAUUUUUUUATT against BC037703 | inactive: 0.176
CCCUCGAGUGAUCAUUUUGTT against 3732419F12 | inactive: 0.464
GCAGCACAGAAAUGUUUCCTT against Tas2r106 | inactive: 0.64
GGACCAUCCCUUCUUCUAUTT against Cabc1 | inactive: 0.0557
CCAUUUUUCAGAUUGUGAUTT against Tnfaip8 | inactive: 0.48
GGAUAGAUGCAACAAGUUUTT against B130055L09Rik | inactive: -0.459
GCAGAAAGCAUACGGAGGCTT against Nfatc2ip | inactive: 0.801
CCUCCAAUCCGUUGAAGAATT against 8430426H19Rik | inactive: 0.853
CCUAUCUCUUAGCAAAGAUTT against 2010003K11Rik | inactive: 0.523
GGUGGUCUCUGGCCUUUAUTT against Ccr8 | inactive: -0.732
CGGUCUUCCUACUUUUGGUTT against Qars | inactive: -2.15
GGAGAUCCCUAUUAUAAAGTT against Ankfy1 | inactive: 2.4
CCGGCCUAUCAGAGAUUGCTT against 2200002J24Rik | inactive: 0.75
